From paper PMC4222720 come the findings set out here.

Sequences of proteins named here, by UniProt entry; tags and fusion partners are left off. A change or cut given only in a name is not applied to a line headed by its entry.
UniProt Q5ACU4: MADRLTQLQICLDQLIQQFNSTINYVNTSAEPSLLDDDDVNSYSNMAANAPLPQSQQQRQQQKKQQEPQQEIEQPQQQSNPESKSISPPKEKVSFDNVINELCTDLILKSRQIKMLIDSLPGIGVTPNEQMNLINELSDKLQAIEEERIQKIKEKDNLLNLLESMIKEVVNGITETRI
UniProt A0A1D8PLN4: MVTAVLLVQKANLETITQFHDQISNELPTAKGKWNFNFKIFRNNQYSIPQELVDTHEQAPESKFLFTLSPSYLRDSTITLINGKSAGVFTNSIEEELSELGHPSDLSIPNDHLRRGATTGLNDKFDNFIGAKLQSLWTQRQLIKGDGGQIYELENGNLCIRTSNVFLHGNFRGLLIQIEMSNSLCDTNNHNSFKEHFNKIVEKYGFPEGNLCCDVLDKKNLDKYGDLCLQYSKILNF

These are yes or no findings as the source states them, for the method shown. In cells and extracts the contact can be indirect. A yes stands for co-enrichment or nearness to the bait. Other partners may have been found. Where a sequence is shown, tags or fusion partners need not be part of it.

The labels stand for the following.
T1: TAP-tagged CaMed7 (C. albicans) (UniProt Q5AEN6)
T1 sequence: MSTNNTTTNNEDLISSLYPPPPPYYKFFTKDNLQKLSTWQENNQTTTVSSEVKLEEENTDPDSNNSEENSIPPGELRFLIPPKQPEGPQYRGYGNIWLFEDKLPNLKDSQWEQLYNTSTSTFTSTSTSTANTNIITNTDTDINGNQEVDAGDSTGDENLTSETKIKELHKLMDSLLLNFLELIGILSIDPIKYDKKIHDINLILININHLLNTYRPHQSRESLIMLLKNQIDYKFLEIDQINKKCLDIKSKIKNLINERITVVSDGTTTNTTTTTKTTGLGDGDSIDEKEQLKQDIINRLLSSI

B1: Med16 (protein, UniProt C4YSX0 1-1052)
chain: MATQTDKQTIGRHLEQVPKASNLISWSRNGFIAYIPPIITTTTTTPTTTTTNNNKSNLLLTYIKNSDGKKWQLASPEPINIKLENNFLPQLSLVSWGSLNTDLAVSDIYGNFYILLAGVGLLDPNHIPSTITTTSTIKTEGNTEKNKDTKQIGNGSGTNGHGDSPINTPSFELTSYNHMEMIYRDIINPDINSAVNPGASIVAFKWLNIEKPQIVNKAATRLAENPTTTSSNSSSSIYGYGINQYQPYGVCHPIPTKQACVALRKNGQFILFYQGEHKVEYHKICCNLTDNISIIEKASIGFNNDKQIIVTAWDSLSNDINVYSIDINWGFLIESAKRQKLDQHYHTPKEAQKPPRLTLKKLHQMKPIQCFKEEDGESQSQSVVPEMGKLKVEELSSIDIISSNPDPKSGLSILITYGSSIIYRYALEKSDSSNTTSGGETSKNPISQAFYNLGVEKKIDWKGDDSSVRLVFKDKLMRRGQIESIINGFLDLSFSIIYKDGTVDVVDTTSWQIVNNSKNNNSVTGDEMELDNNDYPPKLISNLFDQGFQFPKISHKNRLVLAISPTMSSIVYTEIYGETVNLQLKPLERIDNFGTNSHDLYYTSVAFAHRYAFALYTSTCSDDLLLLIQSEINRIKDAVDGDTITRNKLGKQLCDSVIIECHKAINFHLDTITKESLDKLLSNNASLQKLLSLQLILGEFQQSSHFPNNYVVPDIAWIVLNLRSASLGIMFTLSSIYRQVSKKKPSEDTLQDSITRGECIMSIIGNFKWLIDLLVYLNQELLQLIYVKNNFLNNGNTTTSKLTLSNSIVLPLILNKVSRLFLMYAISAMGRTHEILKKLHKDLTEANKLFAPMKESLNRYFSISNNSPITVNLFESYLRECDALLNKEVPQKILTANNSINGNVNGNSGTSTNKPYSALKFEQKLLIKGIDVNDDNDSSTKISNTIIEELSNMILDRYSISISRETKLSELMFYDTDWLNIGINKKEVPSYTIDALRKLIISDSSTSTSLAKGEKLRVCTRCRAVSLVGDVTGLWTMVFQRTCMCGNAWVNV
B2: Med18 (protein, UniProt C4YKK1 1-351)
chain: MVHQLSLVSSIPHNKYLQTISTLQALTGLIQPESISTYTLLAKPSYAFKPKFEPGKVNQIEQYYMRCITTWNSDKQGDDGKVEKGFDISEPFINKESNIVVRKLFTEEDSVERVWTLQVSDIPVAGKNQGCCQQQIYESTLVHTHTAIEIKVGNGDPIDIDTNNDKQGENNTDKPKQEHDGKLPEAIDEDIIKNGDEKKTTHDDNDSDIMEIDEPNPETQTLPQSLSNGVSQRTTRKDSFLIFLSDLGYEVINQYWQKGVRFFYGDIIIEIYKIFIRDESSQADSNEGIKLKLLDDSNQFQIKAYININKSTEIDSINSGVKELIKLQEFLKNLFVLEIPDRMFMDSRIKQ
B3: Med17 (protein, UniProt C4YES4 1-565)
chain: MVEKQFNIDLELNDTGHIDPFLQDEDKLKLEELIPRILFERKSFLNVTEDSLRKEIDNSLKISEEDALDTEESREDTVEADQQEVFNKHKFELSKNINNALNETQLSLDFVSLLISSVKPSLAKSTISPHLSKFVKPTSLNSDRLGQDSNDNQESKTTDSFGQGWKLESLGKITDLFREASTNLNDQVIKERRYWNMINLVLANDEVLFRMRDPQNNARAIGVKYGYGDSGSNFHDQGLALLRKDNQTGEISFHPISSINNAKIVEKVSRFIRVKILSQIDGDYMLTGQSIFNFDFEKSKQSIINDIEKARFFLFEEDLFHQLIREAKLLVNYNVSIISNKIIIEINNIIIEIESIVYDELNEEELENYYQNVNEYSTLHNKKCQLILNYLKLMLCCYYKYNLKLKQKVPTALTKWKQSNSHPLILRPLVGNMRHELNLLNMKSVLDRLMHAHESELSYSKLDVEKFINLATRSKKQNPFQKSIEKPISKFHLVLCNKTSNMLDVNIQLTTNESFVNLIINMTIIRFETEDDFKNNVNGINVLQLGFSDFNEIKECLDWSIQNFV
B4: Med8 (protein, UniProt Q59TD3 1-239)
chain: MSQTPFNPNSPSVPTTTSLPSTDFSQIPYDVLESIRNRLNQIRQSLTKLADQINNHNRHPQKIKLPSYSYFQNQFQVLITQLMSITNQLYNNEDLLRNTNVYPTPIFPTSAHENMLTTLLRKKVAPEVDEWINGAKLIMENETKNKLDNQQVEIDILKIDQWVQWCLAKIQDLRDEFQFYGFHTVEELDHMETPQGKQEIKEKKDKEFEREQIELKITAGGQKSLHPNQVLKFMCQGQI
B5: Med11 (protein, UniProt Q59S43 1-168)
chain: MSSLDNDKTENFIQERLDSLHEIDCKVVTLLDQFSSIFQSFYTKSKEDFSQQTSDIYSTLSKVAIDLRKEIKIMDDNIGAYDKNDDNVMILPISNVDQKNTKLGRKRLDLELAELKRLISDEKQVETLENESNNEIQPKTESDTNQVETNENGNDINNKESEDIEMKE
B6: Med6 (protein, UniProt Q5A2Z1 1-263)
chain: MESLDEIQWKSPEFIQERGLNTNNVLEYFSLSPFYDRTSNNQVLMMQFQYQQIQIPPGVSFHQYFQSRLSEMTGIEFVIAYTKEPDFWIIRKQKRQDPQNTVTLQDYYIIGANVYQAPRIYDVLSSRLLASVLSIKNSTDLLNDMTSYHISDGGHSYINSIHGSSSKPSQSSAVSKPSSTNTGTNATTTPITLTTPSGATVPSTVSNGISTSTEIASGVFDTLLNDVVMNDDHLYIDEIPLYGEGSTLERLGLKGNKDAGLSL
B7: Med10 (protein, UniProt C4YGC2 1-170)
chain: MTTGALPSTPANEPLIKSADNVANLIESFIELGVLVHDNQGTPQSNQALMNKLNQLISQLSQTSITANDPNDANTNLKQFLIPIDVISYIEDGRNPDIYTREFIEVNAKSNARLKGKMLGFKKLRDVFGDKLKQEFPQLEKGVDDIINRTNDNSSHIASVITDTANNNNS
B8: Med14 (protein, UniProt Q5AG31 1-1261)
chain: MPNGKQQHEVTESSSPPEIPHITANMIPLSNIIKYYTQEAYKQLTTAIENLSMNVNEESDIKRKKYFLNVIINLRQDFIKVYTLIKWASISKDVSKFIDLLNWFRIQEFHFENLIFQLNALTGYNAAKLPNSDIITALEVLYHGRPKLPSYNYIKSDNLSPQKILETLNDLNLVLMTRFALMDNIPKRFDYEIKDGRAYIRVSNEFEVSITVGNDLIIDNPEEYYKSPFYFIDFKFLFGANPESGLITFNDDKISTKLPTSSHKKLEKLVNQTLLTRGLQGLYELLHKYSNSFKIYLLAKQFQTLLINSRWRGNFQINYQTNKSLIVINYWSQHYLSRNWKSFIELGIDSHSNLNYRWFKNGQYCFGDQGNNELDKIFHLQRRNSNNGVTTSSNTISTSAMIAGIRRSTELSNETAIVDDNDNDNDDTNNTGETENEDLNVDLILNVVVNQHAKSIMSEIYSQLLTRFSETDVSMVSPHQLLLQISPKKSTVFAINPLTGFFYFIDPTPIQTYITKKINSPPPTLSQVSIKQSFIPESDMISYVIDQIIQLRLEVFNKEVNTKLATTAWINNGIIKLSDHELSKLTQFLIQNEEQEGDDNEEDSSTNTRLDSVLQSFKVQFYRRKNWPSSWFLINMISGVTTKSFWWVARIKSISGDWKIQWAQIIKFHGDNAKQELSPNESKVFDKPKRTVDCSIESEQLNFEFFKTLSTLSSNLILDHMILEELQVRSIKFIKLDWETIDDNKIFSKFKQNHDISLKRKNSHNINIDVNVDVADNTSTTTNTKYIRAPKLKYESMFLIYNDKLLPIYNSATILFLKIELVESNKMYLKLFGNLRNLQIKNTSEDIQKLHLNIDEANQYFEIDNTVDLSTVINEPKTLLLNLIFNTLNKLNSLIKILDQLNKSNVTVLDNSMDNITINIKDKYNDNNDKLIIIKLPEQATDSIQLLMKNGSTTTTDEIDLRNNNILEFELILKFLNQYLRESKSNNHNRQQISIIKIIQYLTEINPILQSTKAINQQLAELKRINSTNNNNNNAKRRSILKLSNGLYKLYFNLNIISLTHLQLVFFMNSNTGSNLKKIQRDKIMINLSLIKFDRFSKPNGNFQDSTNGHLIKISFKDSLINENLKFKNLFEIIFKNINELLITKSKQIKSLNQTENQQQQQPLKQEDNSDSAIIKKESQSIEDDLLDFGEYDNDIKPQQQEPQQNEKENSKTTSKENETVRPDDILIKLNYDYLLSMNNLQLMINEITKSCFQYLQQQQE

This test concerns the target T1, TAP-tagged CaMed7 (C. albicans). Put plainly: affinity purification with mass spectrometry; tandem affinity purification from C. albicans with TAP-tagged Med7 as bait and an untagged control; TCA precipitation, SDS-PAGE, in-gel trypsin digestion, LC-MS/MS (Velos LTQ-Orbitrap).
Regarding Med21 (from UniProt Q5ACU4), the binding entry was “binds”.
On to Med20 (from UniProt A0A1D8PLN4 1-237), for which the binding result was “binds”.
On to B1, for which the binding entry is “binds”.
As to B2, the binding entry is given as “binds”.
Turning to B3, the binding entry is recorded as “binds”.
B4: the binding entry is “binds”.
To B5 belongs “binds”; to B6, “binds”; to B7, “binds”.
Consider B8, for which the binding entry is “binds”.
